The campaign covered roughly 330,000 compounds. About 7,700 (2.3%) were called active. Inconclusive means that the source gave no clear call. Such entries were picked first, then a sample of the others. Calls come from the whole dose curve; as a rule, active = well fitted inhibition curve with a large enough effect; inconclusive = small, poorly fitted or top-dose-only effect, or effect the other way; inactive = flat fitted curve, though single readings scatter. Where the call is inconclusive, the potency comes from a doubtful curve fit.
experiment: qHTS screen for small molecules that inhibit ELG1-dependent DNA repair in human embryonic kidney (HEK293T) cells expressing luciferase-tagged ELG1; conditions: HEK293T ELG1-luciferase reporter, luminescence, 16 h, DNA damage induced by 5-fluorouridine; activity change, negative = inhibition: at 46.1 µM (top of the series); note: nearly all actives have a fitted effect of over 55% in size
Summary of the method: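 Quantitative HTS, concentration-response format. 2,000 cells/well co-treated with 5-fluorouridine and compound, 16 hr in 5% CO2 at 37 °C; ONE-Glo luminescence read after 30 min.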
% is set by controls: 0 for no effect and ±100 for the full control effect; potency is the fitted concentration of half-maximal effect.

Structure (SMILES)	Potency	activity change, negative = inhibition
Cc1ccc(-n2nc(-c3ccc(N)cc3)cc2N)cc1	inconclusive: 20.6 µM [activator, partial curve]	
Cc1cccc(C)c1NC(=O)c1nc(S(=O)(=O)Cc2ccccc2)ncc1Cl	inconclusive: 2.31 µM [activator, partial curve]	
O=C(CSc1nnc(C2CC2)n1C1CC1)c1ccc(F)c(F)c1	inconclusive: 23.1 µM [activator, single point]	
COc1cc2c(cc1OC)/C(=C/C(=O)c1ccc([N+](=O)[O-])c(C)c1)NCC2	inconclusive: 7.3 µM [inhibitor, partial curve, poor fit]	
Cc1ccc(S(=O)(=O)N2CCC3(CC2)OCCO3)s1		inactive: 26.3%
Cc1onc(-c2ccccc2Cl)c1C(=O)Nc1ccc(OCC(=O)N2CCOCC2)cc1	active: 9.2 µM	
O=C(COc1ccc(Cl)cc1Br)Nc1cccc(S(=O)(=O)N2CCCC2)c1		inactive: -14.4%
Cn1nnnc1Sc1ncnc2scc(-c3ccc(-c4ccccc4)cc3)c12	inconclusive: 11.6 µM [inhibitor, partial curve]	
CCc1nnc(NC(=O)c2c(C)nn(-c3ccccc3)c2Cl)s1		inactive: -1.69%
COc1ccc(Oc2ccc(NC(=O)c3ccccc3C)cc2)cc1	inconclusive: 18.3 µM [inhibitor, single point]	
COc1ccccc1N1CCN(C2CCC(C)CC2)CC1 (stereo unspecified)	inconclusive: 23.1 µM [activator, partial curve, poor fit]	
O=C(Nc1ccc2ccccc2c1)NC1CCS(=O)(=O)C1 (stereo unspecified)	inconclusive: 20.6 µM [activator, single point]	
OC1CCCN(c2ncnc3c2nnn3Cc2c(F)cccc2Cl)C1 (stereo unspecified)	inconclusive: 18.3 µM [activator, single point]	
Cc1ccc(-n2ncc3c2ncn2nc(-c4ccco4)nc32)c(C)c1	inconclusive: 35.5 µM [activator, partial curve, poor fit]	
NC(=O)CC(NC(=O)c1ccc(Br)cc1)c1ccc(N2CCN(c3ccccc3)CC2)c([N+](=O)[O-])c1 (stereo unspecified)	inconclusive: 5.8 µM [inhibitor, single point]	
CC1CCCCN1CCNC(=O)C1CCCN(c2ncnc3c2nc2n3CCCCC2)C1 (stereo unspecified)		inactive: 0.828%
O=C(NCCCN1CCN(CCCNC(=O)c2ccc3c(c2)OCO3)CC1)c1ccc2c(c1)OCO2	inconclusive: 29.1 µM [activator, single point]	
Cc1ccccc1NCC(=O)N/N=C\c1ccc2c(c1)OCO2		inactive: 20.1%
Cc1cc(C)c(OCC(=O)N(Cc2ccccc2)C2CCS(=O)(=O)C2)c(C)c1 (stereo unspecified)		inactive: -11.7%
O=C(CSCc1ccc(Cl)cc1)Nc1nccs1	inconclusive: 0.231 µM [activator, partial curve]	
CCOC(=O)CSc1nc2ccc(NC(=O)CSc3nnnn3Cc3ccccc3)cc2s1		inactive: -4.33%
COc1ccc(NC(=O)CN(C)S(=O)(=O)c2ccc3c(c2)CC(C)N3C(C)=O)cc1OC (stereo unspecified)	inconclusive: 14.6 µM [inhibitor, partial curve, poor fit]	
O=C(CSc1nnc(-c2ccc([N+](=O)[O-])cc2)o1)Nc1ccccn1	inconclusive: 1.83 µM [activator, full curve]	
O=C(O)c1ccc(CN2C(=O)c3ccc(C(=O)O)cc3C2=O)cc1		inactive: 23.8%

Structure (SMILES)	Potency	activity change, negative = inhibition
Cc1nc(C)c(-c2nnc(-c3ccccc3Cl)o2)cc1C(=O)NN		inactive: -14.4%
CCSc1nnc(NC(=O)c2ccc3c(c2)OCO3)s1	inconclusive: 8.2 µM [activator, partial curve]	
N#CCSc1ccccc1NC(=O)COC(=O)CCNC(=O)c1ccc([N+](=O)[O-])cc1		inactive: 8.42%
C[C@@H]1CN([C@@H](C)CO)C(=O)Cc2cc(NC(=O)Nc3ccc(C(F)(F)F)cc3)ccc2O[C@@H]1CN(C)S(=O)(=O)c1ccc(Cl)cc1	active: 20.6 µM	
CC(Nc1cc(N2CCN(S(=O)(=O)N(C)C)CC2)ccc1[N+](=O)[O-])c1ccccc1 (stereo unspecified)		inactive: -18.9%
Cc1nnc(SCC(=O)N(CC(C)C)c2c(N)n(Cc3ccccc3)c(=O)[nH]c2=O)n1N	inconclusive: 5.62 µM [activator, single point]	
COC(=O)c1cc2c(N)c(C(=O)c3ccccc3)sc2nc1C(OC)OC	inconclusive: 29.1 µM [inhibitor, single point]	
Nc1ncnc2c1ncn2[C@@H]1O[C@H](CNCc2ccc(OCc3ccccc3)cc2)[C@@H](O)[C@H]1O	inconclusive: 10.3 µM [activator, partial curve]	
CCCN(C(=O)c1ccc(N(C)S(=O)(=O)c2ccc(C)cc2)cc1)C1CCS(=O)(=O)C1 (stereo unspecified)		inactive: 2.89%
Clc1ccc(-c2noc(CN(Cc3ccccn3)CC3CCCO3)n2)cc1 (stereo unspecified)		inactive: -17.3%
COC(=O)c1ccccc1NC1=C/C(=N\S(=O)(=O)c2cccs2)c2ccccc2C1=O	active: 5.17 µM	
Clc1ccccc1-c1nnc(-c2ccccc2Cl)o1	inconclusive: 16.4 µM [activator, partial curve]	
CC(=O)Nc1ccc(NC(=O)c2cc([N+](=O)[O-])cc([N+](=O)[O-])c2)cc1		inactive: -13.7%
Cc1ccc(C(=O)N2CC(=O)Nc3ccc(F)cc3C2c2ccc(F)cc2)cc1[N+](=O)[O-] (stereo unspecified)	inconclusive: 32.6 µM [inhibitor, single point]	
O=C(NC(Cc1ccc(O)cc1)C(=O)O)c1ccc2c(c1)OCO2 (stereo unspecified)	inconclusive: 10 µM [activator, partial curve, poor fit]	
CC(C)Cn1nc(C(=O)Nc2cccc(C(=O)NC3CC3)c2)c2ccccc2c1=O	active: 16.4 µM	
O=C(CS(=O)(=O)c1ccc(F)cc1)Nc1nnc(-c2cccs2)o1	inconclusive: 18.3 µM [activator, single point]	
O=C(NC(=S)NNC(=O)[C@H]1C[C@@H]1c1ccccc1)c1cccc(F)c1	inconclusive: 29.1 µM [inhibitor, single point]	
COc1ccccc1CC(=O)N1CCN(c2ccc([N+](=O)[O-])cc2)CC1	inconclusive: 18.3 µM [inhibitor, single point]	
CN(Cc1nc(-c2cccnc2)no1)S(=O)(=O)c1ccccc1		inactive: 5.46%
CCCC(CCC)c1nnc(NC(=O)c2ccco2)s1		inactive: -1.77%
Cc1ccc2nc(NCc3ccco3)c(C=NCc3ccco3)c(=O)n2c1	inconclusive: 20.6 µM [activator, single point]	
O=C(N/N=C/c1cccnc1)c1ccco1	inconclusive: 20.6 µM [activator, partial curve, poor fit]	
Fc1ccc(-c2nnc(Cc3ccc(Cl)cc3)o2)cc1	inconclusive: 20.6 µM [activator, partial curve]	

Structure (SMILES)	Potency	activity change, negative = inhibition
S=C(c1ccc(-c2ccc(Cl)c(Cl)c2)o1)N1CCOCC1	inconclusive: 4.11 µM [activator, full curve]	
C=CCN(C(=O)c1csnn1)C(C(=O)NC1CCCC1)c1cccs1 (stereo unspecified)		inactive: 7.01%
CCOC(=O)N1CCN(c2ncnc3c2[nH]c2ccc(F)cc23)CC1	active: 11.6 µM	
Cc1ccc(CNC(=O)CSCc2ccccc2F)cc1	inconclusive: 29.1 µM [activator, single point]	
CCCCN(CC(=O)NC1CCCC1)C(=O)C(=O)Nc1ccc2c(c1)OCCO2		inactive: -5.77%
C#CCOc1c(Cl)cc(/C=N/O)cc1OC	inconclusive: 14.6 µM [inhibitor, partial curve]	
Clc1ccc2nc(C3CCN(Cc4nnnn4C4CCCCC4)CC3)[nH]c2c1	inconclusive: 29.1 µM [inhibitor, single point]	
COc1cccc(CN(C)CC(=O)Nc2cc3oc4ccccc4c3cc2OC)c1	inconclusive: 29.1 µM [inhibitor, single point]	
COc1cccc(C(=O)Nc2ccc(C)cc2)c1	inconclusive: 2.82 µM [activator, full curve]	
COc1ccc(N2C(=O)CC2(C#N)c2ccc(OCc3ccccc3)cc2)cc1 (stereo unspecified)		inactive: 3.53%
Cc1ccc(C)c(NC(=S)Nc2ncccc2C)c1	inconclusive: 18.3 µM [activator, partial curve]	
CCOc1ccccc1Nc1nnc(SCC(=O)NC2CCS(=O)(=O)C2)s1 (stereo unspecified)	inconclusive: 23.1 µM [activator, partial curve, poor fit]	
COc1ccc(-c2n[nH]c(=S)n2N)c(OC)c1		inactive: -13.9%
Fc1ccc(C2c3[nH]c4ccccc4c3CCN2Cc2cccn2-c2ncccn2)cc1 (stereo unspecified)		inactive: 3.5%
COC(=O)C(=C/C(C)=C/c1cccnc1)C(=O)OC	inconclusive: 25.9 µM [inhibitor, single point]	
COc1ccc(C(=O)Nc2ccccc2N2CCOCC2)cc1S(=O)(=O)N1CCOCC1		inactive: -12.8%
COc1ccc(N(CC(=O)NC2CCCC2)C(=O)Cn2nnc(-c3ccc(OC)c(OC)c3)n2)cc1		inactive: -5.8%
COc1ccccc1-c1cn(S(=O)(=O)c2ccc(C)cc2)nc1N	inconclusive: 23.1 µM [inhibitor, partial curve, poor fit]	
CCc1ncc(/C=C2\C(=O)Nc3ccccc32)[nH]1	inconclusive: 18.3 µM [activator, partial curve]	
COc1ccc(N2CCN(C(=O)c3ccc(CS(=O)Cc4ccc(C)cc4)o3)CC2)cc1 (stereo unspecified)	inconclusive: 20.6 µM [inhibitor, single point]	
CCS(=O)(=O)N1CCCC(C(=O)NCc2cccnc2)C1 (stereo unspecified)		inactive: 11.9%
COc1ccccc1C1CCN(c2ccc([N+](=O)[O-])cn2)CC1	inconclusive: 23.1 µM [inhibitor, partial curve, poor fit]	
Cc1cc(C(=O)Nc2ncn(Cc3ccc(F)cc3)n2)ccc1[N+](=O)[O-]		inconclusive: 15.1% [activator]

Quoted at random: 2 compounds from above
Structure (SMILES)	Potency	activity change, negative = inhibition
C=CCN(C(=O)c1csnn1)C(C(=O)NC1CCCC1)c1cccs1 (stereo unspecified)		inactive: 7.01%
Fc1ccc(C2c3[nH]c4ccccc4c3CCN2Cc2cccn2-c2ncccn2)cc1 (stereo unspecified)		inactive: 3.5%
